# In PubChem BioAssay AID540276 (National Center for Advancing Translational Sciences (NCATS), 2011):
# Values joined by “and” are separate entries in the source; they are usually repeats but may differ in a detail not shown here. Identical values can stand only once. In all, about 300,000 compounds went through this assay and about 5,400 (1.8%) were called active. This list was built around the results that the source calls inconclusive (neither active nor inactive); the mix of calls is not that of the screen. The call rests on the fitted dose curve; tested in HEK293 cells. A potency beside an inconclusive call is a rough fit, not a confirmed value.
# Experiment: qHTS for inhibitors of binding or entry into cells for Marburg Virus
# Conditions: Marburg virus pseudotyped entry inhibition, cell reporter; activity change, negative = inhibition: at 37.8 µM (top of the series) unless noted
# On the % scale 0 is the no-effect control and ±100 the full control effect; potency means the concentration at half of the fitted maximal effect.
Structure (SMILES),Potency,"activity change, negative = inhibition"
CN1CC[n+]2c(CN3C(=O)c4ccccc4C3=O)csc21,"inconclusive: 17.8 µM [activator, single point]",–
Cc1ccc(C)c(N2CCN(S(=O)(=O)c3ccc(-c4ccc(=O)[nH]n4)o3)CC2)c1,"inconclusive: 11.2 µM [inhibitor, single point]",–
C=CCOC(=O)C1=C(C)NC(SCC(=O)N(CC)CC)=C(C#N)C1c1ccco1 (stereo not given),"inconclusive: 17.8 µM [inhibitor, single point]",–
Cc1nn(-c2ccccc2)c(-n2cccc2)c1C(=O)NCCc1ccc(Cl)cc1,–,inactive: -31.3% [at 46.1 µM]
COc1ccc(/C=C\C(=O)CC(O)(c2ccccc2)C(F)(F)F)cc1 (stereo not given),–,inactive: -19.2%
Cc1[nH]c2ccccc2c1C(=O)COC(=O)c1c(-c2c(F)cccc2Cl)noc1C,"inconclusive: 11.2 µM [inhibitor, partial curve, poor fit]",–
Nc1ncnc2oc(-c3ccco3)c(-c3ccco3)c12,"inconclusive: 23.1 µM [inhibitor, single point]",–
CC1CC(C)(C)NC(=S)N1CCC(=O)NCCc1ccc(Cl)cc1 (stereo not given),"inconclusive: 2.82 µM [inhibitor, partial curve]",–
CC1CCCC(NC(=O)CN2C(=O)NC(c3ccccc3)(c3ccccc3)C2=O)C1C (stereo not given),"inconclusive: 25.1 µM [inhibitor, single point]",–
COc1cccc(NC(=O)c2cc([N+](=O)[O-])ccc2N2CCN(C)CC2)c1,"inconclusive: 35.5 µM [inhibitor, single point]",–
COn1c2c(c3c4no[n+]([O-])c4ccc31)CCCC2,–,inactive: -5.52%
Cc1nc2c(-c3ccc(F)cc3)c(C)nn2c(C)c1CCC(=O)Nc1ccccc1F,–,inactive: -6.66%
O=C(Nc1cc(C(F)(F)F)ccc1N1CCOCC1)C1=COCCO1,–,inactive: 2.99%
CC(=O)Nc1ccc(CN2CCCC(C(=O)c3ccc(C(F)(F)F)cc3)C2)cc1 (stereo not given),"inconclusive: 25.1 µM [inhibitor, single point]",–
Cc1sc(NC(=O)c2ccco2)c(C(c2cccnc2)N2CCC(C)CC2)c1C (stereo not given),"inconclusive: 10.3 µM [inhibitor, partial curve, poor fit]",–
COc1ccc2[nH]c(C)c(C(=O)CN3CCN(C/C=C/c4ccccc4)CC3)c2c1,"inconclusive: 18.3 µM [inhibitor, single point]",–
COc1ccccc1C(=O)NCCn1cc(SCc2ccc(C)cc2)c2ccccc21,"inconclusive: 35.5 µM [inhibitor, single point]",–
COc1ccc(OCCCCc2c(C)n[nH]c2C)cc1,"inconclusive: 25.1 µM [inhibitor, partial curve, poor fit]",–
CCC(C(=O)NCCc1ccc(OC)cc1OC)n1nc(C)n2c(cc3occc32)c1=O (stereo not given),–,inactive: -2.93% [at 46.1 µM]
N=NC(=O)c1ccccc1Nc1c(O)[nH]c2ccccc12,"inconclusive: 2.82 µM [inhibitor, full curve, poor fit]",–
CCCn1c(C)c(C(=O)c2ccc3ccccc3c2)c2ccccc21,inactive,–
COc1ccc2[nH]cc(CCNC(=O)Cc3ccc(Br)cc3)c2c1,"inconclusive: 7.08 µM [inhibitor, full curve]",–
Cc1ccc(NC(=S)NC(=O)C2CCCC2)cc1C,"inconclusive: 3.16 µM [activator, single point]",–
COc1ccc(/C=C/C(=O)OCC(=O)N2CC(=O)Nc3ccccc32)cc1,–,inactive: -25.3%

Structure (SMILES),Potency,"activity change, negative = inhibition"
O=C(NC12CC3CC(CC(C3)C1)C2)N1CCN(S(=O)(=O)c2ccc(Cl)cc2)CC1,"inconclusive: 29.1 µM [inhibitor, single point]",–
O=C(NCCN1CCOCC1)c1cc(Sc2ccc(F)cc2F)nc2ccccc12,–,inactive: -1.61% [at 46.1 µM]
Cc1ccc(C)c(-n2c3nc(=O)[nH]c(=O)c-3cc3c(C)nn(-c4ccccc4)c32)c1,–,inactive: 3.04% [at 46.1 µM]
Cc1ccc(NC(=O)C2CCCN2S(=O)(=O)c2cccc3nsnc23)c(C)c1 (stereo not given),–,inactive: 5.52% [at 46.1 µM]
Cc1ccc(C(=O)N/N=C\c2ccc(Br)o2)o1,"inconclusive: 0.0052 µM [inhibitor, full curve, poor fit]",–
CCC(C)c1ccc(NC(=O)C2CCCN(c3ncccn3)C2)cc1 (stereo not given),"inconclusive: 29.1 µM [inhibitor, single point]",–
CCOC(=O)c1cc(NC(=O)c2ccc(C)cc2)c(=O)oc1C(F)(F)F,–,inactive: 30.1%
COc1ccc(C(=O)Nc2ccc3c(c2)OCCO3)cc1,active: 6.51 µM,–
CN(C)S(=O)(=O)N1CCC(Oc2cccc(C(=O)N3CCCCCC3)c2)CC1,"inconclusive: 35.5 µM [inhibitor, single point]",–
O=C(c1ccccc1)[C@@H]1O[C@@H]1c1ccccc1,"inconclusive: 0.0168 µM [activator, full curve, poor fit]",–
CN(C)CCCNS(=O)(=O)c1ccc(NC2CCCCCC2)c([N+](=O)[O-])c1,"inconclusive: 14.1 µM [inhibitor, partial curve, poor fit]",–
Cc1cc(SCC(=O)c2cc(C)n(C)c2C)nc2ccccc12,"inconclusive: 29.1 µM [inhibitor, single point]",–
Fc1ccc2c(c1)C(c1ccc(N3CCOCC3)cc1)=NNC(c1cccs1)=N2,"inconclusive: 18.3 µM [inhibitor, partial curve, poor fit]",–
Cc1cccc(Nc2ncnc(N)c2[N+](=O)[O-])n1,–,inactive: 0.233% [at 46.1 µM]
COc1cc(N2CCOCC2)ccc1C=C(C#N)C#N,–,inactive: 9.8% [at 46.1 µM]
CCCCCC(=O)Nc1ccccc1N1CCOCC1,"inconclusive: 35.5 µM [inhibitor, single point]",–
Cc1ccc(Nc2ncc(C(=O)N3CCN(c4ccc(F)cc4)CC3)c3ccccc23)cc1Cl,"inconclusive: 5.62 µM [inhibitor, single point]",–
Cc1nc2ccccn2c1C(=O)NN,"inconclusive: 3.55 µM [activator, full curve, poor fit]",–
CCOC(=O)/C(C#N)=C/Nc1ccsc1C(C)=O,"inconclusive: 35.5 µM [activator, single point]",–
N/C(=N\N=C\c1cccc(O)c1)c1nonc1N,"inconclusive: 22.4 µM [inhibitor, partial curve, poor fit]",–
C/C(=N\NC(=O)c1cc([N+](=O)[O-])cc([N+](=O)[O-])c1)c1ccco1,"inconclusive: 17.8 µM [inhibitor, partial curve, poor fit]",–
CC(=O)N1CCC(=NNc2ccnc3cc(Cl)ccc23)CC1,–,inactive: -2.7% [at 46.1 µM]
O=C(CC1CCCCC1)NCc1ccco1,"inconclusive: 5.62 µM [activator, single point]",–
Cc1cccnc1NC(=S)NC(=O)/C=C/c1ccco1,–,inactive: 16.3%

Structure (SMILES),Potency,"activity change, negative = inhibition"
COC(=O)CSc1nc2cc(C)ccc2cc1C#N,–,inactive: -5%
COc1ccc(CN2CN(C3CCCC3)CSC2=S)cc1,"inconclusive: 6.31 µM [activator, single point]",–
N#CCC(=O)N/N=C/c1cn(Cc2ccc3ccccc3c2)c2ccccc12,"inconclusive: 14.1 µM [inhibitor, partial curve, poor fit]",–
COC(=O)c1ccc(Cl)c(NC(=O)Cc2ccccc2[N+](=O)[O-])c1,–,inactive: -20.1%
Cc1csc(N/N=C/c2ccccc2F)n1,"inconclusive: 35.5 µM [inhibitor, single point]",–
CN1/C(=C\C(=O)COC(=O)CN2C(=O)C3CC=CCC3C2=O)C(C)(C)c2ccccc21 (stereo not given),–,inactive: -1.24%
Cc1ccccc1SCC(=O)Nc1cc(S(=O)(=O)N2CCOCC2)ccc1N1CCOCC1,–,inactive: -21.4% [at 46.1 µM]
Nc1ccc2c3c(cccc13)C(=O)N(c1ccccc1)C2=O,–,inactive: 22.8% [at 46.1 µM]
COC(=O)c1cc(C(=O)N2CCN(c3ccccc3OC)CC2)cc([N+](=O)[O-])c1,"inconclusive: 0.562 µM [inhibitor, full curve, poor fit]",–
O=C1c2ccccc2NC2CCCCCN12 (stereo not given),–,inactive: 19.2%
O=C(c1cc(-c2cccc(Cl)c2)on1)N1CCN(c2ccccc2)CC1,"inconclusive: 6.31 µM [inhibitor, single point]",–
COc1ccc(Nc2nc(C)nc3c2oc2ccccc23)c(OC)c1,"inconclusive: 7.08 µM [inhibitor, partial curve, poor fit]",–
COc1ccc(Cn2c(=S)[nH]c3cc(C(=O)N4CCCCC4)ccc3c2=O)cc1,"inconclusive: 1.12 µM [activator, full curve, poor fit]",–
Cc1ccc(N(Cc2ccccc2)C(=O)c2ccc(F)c(S(=O)(=O)N3CCOCC3)c2)cc1,"inconclusive: 7.08 µM [inhibitor, partial curve, poor fit]",–
CCN(CC)S(=O)(=O)c1ccc2c(c1)nc(CCC(=O)O)n2CC,–,inactive: 1.06% [at 14.2 µM]
Cc1ccc(NC2=C(CC(=O)O)C(c3ccc(F)cc3)N(c3ccc(C)cc3)C2=O)cc1 (stereo not given),"inconclusive: 10 µM [activator, single point]",–
CCn1c(SCC(=O)Nc2ccc(C)cc2)nc2nc3c(cc2c1=O)CCCC3,"inconclusive: 8.91 µM [inhibitor, partial curve]",–
COc1ccc(NS(=O)(=O)c2cc(NC(=O)c3ccc(F)cc3)ccc2OC)cc1,"inconclusive: 6.51 µM [inhibitor, single point]",–
Cc1ccc(CNC(=O)CCN2C(=O)COc3ccc(C)cc32)cc1,–,inactive: 2.33% [at 46.1 µM]
Cc1cc(C(=O)NN)n[nH]1,"inconclusive: 31.6 µM [activator, single point]",–
O=C(/C=C/c1ccc(Cl)c([N+](=O)[O-])c1)Nc1cccc(NC(=O)c2ccco2)c1,"inconclusive: 16.4 µM [inhibitor, single point]",–
